Data source: PubChem BioAssay AID1259254 (NCATS, 2017)
The deposit covers about 59,000 reagents; below is a part drawn at random. About 1,550 of all reagents (2.6%) count as active. 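G2 share is only a proxy for re-replication; each gene was hit by three separate siRNAs, and active genes were retested.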 Reagents against one gene are numbered here. Not all columns of the deposit are shown. Reagent sequences are not shown. Not given: the amount of reagent.

Screen: 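Gene knock-downs that lead to re-replication, shown by excess G2 DNA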 (primary screen)
Cell system: human HCT116 colorectal cancer cells
Knock-down reagent: single siRNA against human genes
Duration: 3 days
Read-out: 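Imaged Hoechst DNA stain sorts each cell into a cycle phase by DNA amount; per plate, G2 fraction set to 0% for non-targeting and 100% for GMNN siRNA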
Scale: G2 robust z-score and G2 cells, % of GMNN control: higher = more G2 cells, more excess DNA replication
Call rule: 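Active siRNAs have a G2 robust z of 5 or more median absolute deviations over the median, which in these data means about 38% or higher of GMNN control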

The opening 2 entries, to show the layout:
| gene | siRNA no. | G2 robust z-score | G2 cells, % of GMNN control | Outcome |
| --- | --- | --- | --- | --- |
| CHD1 | 1 | -0.219 | 1.42 | inactive |
| CHD1 | 2 | -0.865 | -3.12 | inactive |

The listing, from the first entry:
| gene | siRNA no. | G2 robust z-score | G2 cells, % of GMNN control | Outcome |
| --- | --- | --- | --- | --- |
| CHD1 | 1 | -0.219 | 1.42 | inactive |
| CHD1 | 2 | -0.865 | -3.12 | inactive |
| CHD1 | 3 | -0.724 | -2.13 | inactive |
| P4HA2 | 1 | 4.83 | 36.9 | inactive |
| P4HA2 | 2 | 2.61 | 21.4 | inactive |
| P4HA2 | 3 | -0.765 | -2.41 | inactive |
| TNFRSF19 | 1 | -0.624 | -1.42 | inactive |
| TNFRSF19 | 2 | -0.307 | 0.806 | inactive |
| TNFRSF19 | 3 | -0.14 | 1.98 | inactive |
| BCRP3 | 1 | 0.747 | 8.22 | inactive |
| BCRP3 | 2 | 0.0324 | 3.2 | inactive |
| BCRP3 | 3 | 1.69 | 14.8 | inactive |
| SNX3 | 1 | -1.06 | -4.48 | inactive |
| SNX3 | 2 | -0.198 | 1.57 | inactive |
| SNX3 | 3 | 0.827 | 8.78 | inactive |
| SLC22A10 | 1 | -0.605 | -1.29 | inactive |
| SLC22A10 | 2 | 0.552 | 6.85 | inactive |
| SLC22A10 | 3 | -0.99 | -4 | inactive |
| ATXN10 | 1 | -0.409 | 0.0888 | inactive |
| ATXN10 | 2 | 4.52 | 34.8 | inactive |
| ATXN10 | 3 | 1.7 | 14.9 | inactive |
| TCTN1 | 1 | -0.483 | -0.431 | inactive |
| TCTN1 | 2 | 3.05 | 24.5 | inactive |
| TCTN1 | 3 | 0.235 | 4.62 | inactive |
| OR6Q1 | 1 | -0.43 | -0.0586 | inactive |
| OR6Q1 | 2 | -0.377 | 0.317 | inactive |
| OR6Q1 | 3 | -0.651 | -1.61 | inactive |
| GCNT2 | 1 | 0.342 | 5.38 | inactive |
| GCNT2 | 2 | -0.984 | -3.95 | inactive |
| GCNT2 | 3 | -0.921 | -3.51 | inactive |
